Experimental data reported in paper PMC4685450, “Crystal Structure of Human SSRP1 Middle Domain Reveals a Role in DNA Binding”.
These are yes or no findings as the source states them, for the method shown.

The chains behind the UniProt entries cited, without tags or fusion partners. Residues count along the entry.
UniProt Q08945, residues 196-430: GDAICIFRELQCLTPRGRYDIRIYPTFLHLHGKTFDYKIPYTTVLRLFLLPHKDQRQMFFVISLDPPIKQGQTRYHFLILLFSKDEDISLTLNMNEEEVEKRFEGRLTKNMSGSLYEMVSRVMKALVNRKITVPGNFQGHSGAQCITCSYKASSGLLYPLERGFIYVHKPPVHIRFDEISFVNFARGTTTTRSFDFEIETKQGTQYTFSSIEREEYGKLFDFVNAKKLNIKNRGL

Target: His-tagged middle domain of SSRP1 (SSRP1-M, residues 196-430) (human) (UniProt Q08945)
Assay: SEC; gel filtration of the purification (HiLoad 16/60 Superdex 200 or Superdex 75 pg), 20 mM Tris-HCl, 200 mM NaCl, pH 7.0; both purified

His-tagged middle domain of SSRP1 (SSRP1-M, residues 196-430) (from UniProt Q08945 196-430) (domain or fragment)
binding: no binding
